Measurements taken from PubChem BioAssay AID1259354 (Paczesny and Yang Labs, IUPUI and University of Michigan, 2018).
Hit rate of the full screen: of about 78,000 compounds, about 1,800 (2.3%) were called active. Inconclusive results, whose numbers are uncertain, are shown with a selection of clear calls. Cut-off read from the data, not from the text of the source: active = inhibition above about 30%; inconclusive = mostly about 10% to 28%; inactive = weaker than that.

Chains of the proteins cited; added tags and fusions are not shown. Lines headed by an entry give the natural chain unless they say otherwise; changes in a name come on top.
UniProt Q01638: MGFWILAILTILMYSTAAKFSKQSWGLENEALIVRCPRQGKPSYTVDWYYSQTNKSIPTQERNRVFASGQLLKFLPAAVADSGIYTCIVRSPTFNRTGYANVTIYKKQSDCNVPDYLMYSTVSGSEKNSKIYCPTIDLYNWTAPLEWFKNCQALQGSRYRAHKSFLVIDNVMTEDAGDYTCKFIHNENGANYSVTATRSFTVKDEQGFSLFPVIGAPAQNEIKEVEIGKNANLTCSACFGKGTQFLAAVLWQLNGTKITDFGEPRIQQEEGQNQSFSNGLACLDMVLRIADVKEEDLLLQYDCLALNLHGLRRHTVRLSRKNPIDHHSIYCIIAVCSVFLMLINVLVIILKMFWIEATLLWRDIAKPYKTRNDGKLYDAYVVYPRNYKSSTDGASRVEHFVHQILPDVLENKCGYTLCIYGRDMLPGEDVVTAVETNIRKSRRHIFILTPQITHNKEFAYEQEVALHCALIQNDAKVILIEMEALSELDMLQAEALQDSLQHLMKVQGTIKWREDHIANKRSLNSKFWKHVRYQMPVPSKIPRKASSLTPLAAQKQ

Target: Interleukin-1 receptor-like 1 (Homo sapiens) (UniProt Q01638)
Test: blocks human ST2 binding to IL-33, primary screen, biochemical, AlphaLISA (AID 1259354)
Settings: AlphaLISA ST2-Fc/biotin-IL-33 interaction, 1 h; at 17 µM, active compounds read high

Row | Structure (SMILES) | inhibition
1 | Cc1cc(C)n(C)c(=O)c1C(=O)N1CCCC(CCc2ccc(F)c(F)c2)C1 (configuration not stated) | inactive
2 | O=C(Nc1ccccc1)N1CC[C@@H](c2ccc3c(c2)OCO3)[C@H](O)C1 | inconclusive: 18%
3 | CC(C(=O)NCc1cn2c(n1)SCC2)N1C(=O)c2cccc3cccc1c23 (configuration not stated) | inconclusive: 11%
4 | Cc1c(Cc2ccccc2)c(=O)oc2cc(OCC(=O)O)ccc12 | inactive
5 | CCN(CCn1cccn1)Cc1cn(-c2ccccc2)nc1-c1ccc2c(c1)OCO2 | inconclusive: 24%
6 | C=CCSc1nnc2c(n1)OC(c1ccc(O)c(O)c1)Nc1ccccc1-2 (configuration not stated) | inactive
7 | COc1ccc(CCNc2oc(COc3ccccc3C)nc2C#N)cc1 | active: 38%
8 | CCOc1ccc(/C=C2/OC(=O)c3c2cc(C)[nH]c3=O)cc1OC | active: 51%
9 | CC(C)=CCC/C(C)=C/CC(O)/C(C)=C/Cc1cc(C(=O)O)ccc1O (configuration not stated) | inactive
10 | COc1ccc(C2(CNC(=O)c3ccc([N+](=O)[O-])cc3)CCCC2)cc1 | inactive
11 | Cc1nn2cc(CCNC(=O)c3cc4n(n3)CCCN(C)C4)nc2s1 | inconclusive: 16%
12 | CCOc1cc(C2C(C#N)=C(N)Oc3n[nH]c(-c4ccccc4)c32)ccc1OC (configuration not stated) | inconclusive: 14%
13 | Cn1ccc2c(-c3cncnc3)ccnc21 | inactive
14 | COC(=O)c1ccc(-n2nnnc2SCc2ccccc2C)cc1 | inactive
15 | Cc1ccc(N2NC(=O)/C(=C/c3cccc(Br)c3)C2=O)cc1C | inconclusive: 26%
16 | Cc1cc(C)cc(N2C(=O)NC(=O)/C(=C\c3cc(Br)c(N4CCOCC4)o3)C2=O)c1 | inactive
17 | Cc1ccccc1Cn1cc(C(=O)Nc2ccc(F)c(F)c2F)ccc1=O | inactive
18 | O=C(NC1CCCCCCC1)c1cccs1 | inactive
19 | O=c1[nH]c(=O)n(-c2ccc(Cl)cc2)c(O)c1C=NC(CO)(CO)CO | inconclusive: 16%
20 | CCC1=C(c2ccc(OC)cc2)S(=O)(=O)N(CC(=O)Nc2ccc(F)cc2F)C1=O | inconclusive: 26%
21 | O=C1c2ccccc2S(=O)(=O)N1Cc1ccc(Cl)cc1Cl | inactive
22 | CC(c1cccc(-c2ncc(F)cn2)c1)N(C)C (configuration not stated) | inconclusive: 12%
23 | Cc1ccc(S(=O)(=O)N(C)C2CCS(=O)(=O)C2)cc1 (configuration not stated) | inconclusive: 21%
24 | CCCCN(CC)S(=O)(=O)c1cc(Br)cc2c1N(C(=O)CC)CC2 | inactive

Row | Structure (SMILES) | inhibition
25 | CCN(CC)c1ccc(CN2CCCCCC2)cc1 | inconclusive: 19%
26 | CCN1CCCC1CNC(=O)CCC1CCN(Cc2ccnc3ccccc23)CC1 (configuration not stated) | inconclusive: 13%
27 | CC(C)c1cc(C2CCN(Cc3cc4ccccc4o3)CC2)[nH]n1 | inconclusive: 16%
28 | COCC(=O)Nc1cc(C(=O)N2CCN(Cc3ccccc3)CC2)c2c(c1)nc(-c1ccncc1)n2C | inconclusive: 13%
29 | CSc1nc(N)nc(SCC(=O)Nc2nc(C)cs2)c1C#N | inconclusive: 26%
30 | Cc1cc(Cl)c(C(=O)Nc2ccc(F)cc2)c(Cl)n1 | inconclusive: 14%
31 | Cc1ccc(-c2csc(N3C(=N)SCC3=O)n2)cc1 | inconclusive: 16%
32 | Cc1ccc(NC(=O)Cc2c(C(=O)O)[nH]c3ccc(Cl)cc23)c(Cl)c1 | inconclusive: 13%
33 | CC(=O)c1cc(C(=O)NCc2cccnc2N(C)Cc2ccccc2)cs1 | inconclusive: 16%
34 | N/C(=N/OC(=O)c1cccc([N+](=O)[O-])c1)c1ccccn1 | inconclusive: 17%
35 | CC(C)(C)N1C(=O)C(CC(=O)Nc2ccccc2[N+](=O)[O-])SC1=Nc1ccccc1 (configuration not stated) | inconclusive: 21%
36 | O=C(O)Cc1ccc(NC(=O)CSc2ccccc2)cc1 | inconclusive: 10%
37 | COc1ccc(NC(=O)CC(=O)N2CCN(C3CCCC3)C(=O)C2)c(OC)c1 | inconclusive: 17%
38 | O=C(COc1nsnc1N1CCOCC1)Nc1ccc(F)c(Cl)c1 | inconclusive: 28%
39 | CCCOC(=O)N1CCC(N2CCCC(C(=O)NCc3ccccn3)C2)CC1 (configuration not stated) | inconclusive: 11%
40 | Cc1ccc(N=C2NC(=O)CC(C(=O)Nc3ccccc3C(F)(F)F)S2)cc1 (configuration not stated) | inactive
41 | COc1ccc(N(C(=O)c2ccc(Cl)cc2)C2C=CS(=O)(=O)C2)c(OC)c1 (configuration not stated) | inactive
42 | C=CCc1cccc2cc(C(=O)Nc3ccc(S(N)(=O)=O)cc3)c(=O)oc12 | inconclusive: 13%
43 | O=C(Nc1cccc(-c2cccc(F)c2)c1)C1CCN(CC2CC2)CC1 | inconclusive: 10%
44 | O=C(NCc1ccc(F)cc1)C1CCCN(S(=O)(=O)c2cnc[nH]2)C1 (configuration not stated) | inactive
45 | CCOc1cc(OCC)cc(C(=O)N2CCN(c3ccc([N+](=O)[O-])cc3)CC2)c1 | inactive
46 | O=C(c1cc2ccccc2oc1=O)n1cc(Br)cn1 | inactive
47 | COC(=O)C1CCN(C(=O)CC[C@H]2CNC(=O)[C@@H]3[C@@H](CCN3C(C)C)N2C)CC1 | inactive

Three of the compounds above, as comma-separated lines.
Row,Structure (SMILES),inhibition
7,COc1ccc(CCNc2oc(COc3ccccc3C)nc2C#N)cc1,active: 38%
10,COc1ccc(C2(CNC(=O)c3ccc([N+](=O)[O-])cc3)CCCC2)cc1,inactive
29,CSc1nc(N)nc(SCC(=O)Nc2nc(C)cs2)c1C#N,inconclusive: 26%
